Experimental data reported in the supplement of paper PMC12823440, “Inhibitors supercharge kinase turnover through native proteolytic circuits” (Nature, 2025).
Where a name gives a salt, the structure may show the parent alone. The list shows a part of the results. The calls rarely recur for the same compound in another form.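 In K562 cells expressing nanoluciferase-fused kinases, luminescence was recorded at 4 h intervals between 2 and 18 h, normalized as percent of control with DMSO at 100% and a positive control at 0%. A significant (2 sigma) signal drop marks a time point as decreased. The authors' rule for a hit is not shown and takes in more than the number of time points.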

Protein sequences, listed by entry. Tags and fused reporters are not part of them. Lines headed by an entry give the natural chain unless they say otherwise; changes in a name come on top.
UniProt P50613: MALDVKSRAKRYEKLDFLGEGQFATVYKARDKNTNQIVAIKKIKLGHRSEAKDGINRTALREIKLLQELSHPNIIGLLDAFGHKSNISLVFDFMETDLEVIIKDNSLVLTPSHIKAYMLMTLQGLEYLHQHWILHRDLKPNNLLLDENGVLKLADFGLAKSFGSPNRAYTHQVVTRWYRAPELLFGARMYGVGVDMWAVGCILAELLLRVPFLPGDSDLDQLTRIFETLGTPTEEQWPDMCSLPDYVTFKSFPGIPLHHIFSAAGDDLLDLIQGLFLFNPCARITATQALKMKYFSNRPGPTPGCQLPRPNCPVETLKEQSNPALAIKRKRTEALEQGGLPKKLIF

target: CDK7 (UniProt P50613); assay: number of time points (of 4; 2 h point missing) at which kinase-Nluc abundance scored as decreased, DMSO-normalised (count); higher = more persistent destabilization; settings: K562; 2-18 h

| Compound | number of time points |
| --- | --- |
| Cc1cc(C(=O)NC(C)(C)C)cc(C#Cc2ccc3c4c(oc3c2)C(C)(C)c2cc(NS(C)(=O)=O)ccc2C4=O)n1 (10 µM) | 0 |
| COCCOc1ccc2c(c1)ncn2-c1ccc2cccc(N3CCC(N)CC3)c2n1 (10 µM) | 3 |
| COc1ccc2c(Oc3ccc4c(C(=O)Nc5ccccc5N)cccc4c3)ccnc2c1 [Chiauranib] (10 µM) | 0 |
| COc1cc2c(cc1OC)/C(=C/c1ccc(O)cc1)C(=O)N2 (10 µM) | 0 |
| COc1cc2ncnc(Nc3ccc(O)c(Br)c3)c2cc1OC (10 µM) | 0 |
| O=C(O)[C@H]1O[C@@H](Oc2cc3oc(-c4ccc(O)cc4)cc(=O)c3c(O)c2O)[C@H](O)[C@@H](O)[C@@H]1O [Scutellarin] (10 µM) | 0 |
| NCCOc1ccc(Cl)cc1C(=O)Nc1ccc([N+](=O)[O-])cc1Cl [HJC0152 hydrochloride] (2 µM) | 0 |
| CC(Sc1nc2c(cnn2-c2cccc(Cl)c2)c(=O)[nH]1)C(N)=O (stereo not drawn) (10 µM) | 0 |
| N#C/C(=C\c1ccc(O)c(O)c1)C(=O)O [Tyrphostin AG30] (10 µM) | 0 |
| COc1cc(N2CCOCC2)ccc1Nc1ncc(F)c(Nc2ccccc2NS(C)(=O)=O)n1 (10 µM) | 0 |
| CCC(=O)Nc1cccc(Oc2nc(Nc3ccc(N4CCN(C)CC4)cc3OC)ncc2Cl)c1 (10 µM) | 0 |
| O=C1OC(/C=C/c2ccccc2)=NC/1=C\c1cccnc1 (10 µM) | 0 |
| Cc1cccc(-c2[nH]ncc2-c2ccnc3ccccc23)n1 (10 µM) | 0 |
| C=CC(=O)Nc1cc(Nc2nccc(-c3cn(C)c4ccccc34)n2)c(OC)cc1OCCN(C)C [Rezivertinib] (2.5 µM) | 0 |
| Nc1nc(N)c2nc(-c3cccc(O)c3)c(-c3cccc(O)c3)nc2n1 (10 µM) | 0 |
| CCN1CCN(Cc2cnc(Nc3cc(-c4cc(F)c5nc(C)n(C(C)C)c5c4)c(F)cn3)nc2)CC1 (10 µM) | 0 |
| Nc1[nH]nc2nc(-c3ccc(NS(=O)(=O)c4cc(Cl)ccc4Cl)cc3)cnc12 (10 µM) | 0 |

| Compound | number of time points |
| --- | --- |
| C=CC(=O)Nc1cccc(Oc2nc(Nc3ccc(N4CCN(C)CC4)c(F)c3)nc3[nH]ccc23)c1 [Avitinib (maleate)] (2.5 µM) | 0 |
| Nc1nc(NCCNc2ncc(-n3ccnc3)c(-c3ccc(Cl)cc3Cl)n2)ccc1[N+](=O)[O-] (2.5 µM) | 0 |
| O=C1Nc2ccc(I)cc2/C1=C/c1cc(Br)c(O)c(Br)c1 (10 µM) | 1 |
| C=C1C(=O)[C@@]23[C@H](O)C[C@@H]4C(C)(C)C(=O)CC[C@@]4(C)[C@@H]2CC[C@@H]1[C@H]3O [Glaucocalyxin A] (2.5 µM) | 0 |
| C=C1CCC[C@]2(C)C=C3OC(=O)C(C)=C3C[C@@H]12 [Atractylenolide I] (10 µM) | 0 |
| Cc1nn(C)cc1-c1nc2c(N3CCN(Cc4ccc(Cl)cc4)CC3)c(Cl)cnc2[nH]1 (10 µM) | 0 |
| Brc1ccc(CSc2nc3ccccc3o2)cc1 [BMP signaling agonist sb4] (10 µM) | 0 |
| CN1CCN(c2cc(-c3ccncc3)c(-c3ccc4ccccc4c3)nn2)CC1 (10 µM) | 0 |
| COc1cc(-c2cc(OP(=O)(O)O)cc(-c3cc(OC)c(OC)c(OC)c3)c2)cc(OC)c1OC [Stafia-1] (10 µM) | 0 |
| CC(C)(C)Cc1[nH]nc2c1[C@@](C)(c1ccccc1)C1=C(CC(C)(C)CC1=O)N2 (10 µM) | 0 |
| Cc1c(C(=O)Nc2ccc(Oc3ccnc4[nH]cc(-c5ccccc5)c34)c(F)c2)c(=O)n(-c2ccc(F)cc2)n1C (10 µM) | 1 |
| N#Cc1ccc(-c2cnc3[nH]cc(NC(=O)c4cccnc4)c3c2)cc1 (10 µM) | 0 |
| Cc1ccc(C(=O)NC2CC2)cc1-n1ncc(C(=O)c2cccc(C#N)c2)c1N [Acumapimod] (10 µM) | 0 |
| COc1cc(N2CCC(N3CCN(C)CC3)CC2)ccc1Nc1ncc(Cl)c(-c2c[nH]c3ccccc23)n1 (2.5 µM) | 0 |
| Cc1cc(Nc2cc(N3CCN(C)CC3)nc(Nc3ccc([N+](=O)[O-])cc3)n2)n[nH]1 (2.5 µM) | 0 |
| C=CC(=O)N1CCC[C@@H](n2nc(-c3ccc(Oc4ccccc4)cc3)c3c(N)n[nH]c(=O)c32)C1 [BTK inhibitor 17] (10 µM) | 0 |

Rewritten tab-delimited: part of the list above.
Compound	number of time points
Nc1nc(NCCNc2ncc(-n3ccnc3)c(-c3ccc(Cl)cc3Cl)n2)ccc1[N+](=O)[O-] (2.5 µM)	0
O=C1Nc2ccc(I)cc2/C1=C/c1cc(Br)c(O)c(Br)c1 (10 µM)	1
